Measured values taken from patent US10280179B2, “Spiroquinoxaline derivatives as inhibitors of non-apoptotic regulated cell-death” (Helmholtz Zentrum Munchen—Deutches Forschungszentrum Fur …, priority 2013, dated 2019).

tested on: Pfa1 cells; assay: Cellular toxicity, same assay as Example B.4 without TAM (Example B.5); type: cell-based, mouse; conditions: TC50 divided by IC50 from Example B.4
Text: Cellular Toxicity of Compounds of the Invention
An estimate of the toxicity for compounds of the invention was obtained by using the same assay as described in Example B.4, but without the addition of TAM. […] Such TC50 values obtained for certain compounds disclosed herein, together with an approximate therapeutic window (estimated by dividing each TC50 by the corresponding IC50 determined from example B.4) are shown in Table 3.

| SMILES | Therapeutic Window (approx.. fold) [fold] |
| --- | --- |
| Clc1ccccc1CNC1=Nc2ccccc2NC12CCCCC2 [C-1] | >100 |
| Clc1cccc(CNC2=Nc3ccccc3NC23CCCCC3)c1 [C-2] | >100 |
| Clc1ccc(CNC2=Nc3ccccc3NC23CCCCC3)cc1 [C-3] | >200 |
| Fc1cccc(CNC2=Nc3ccccc3NC23CCCCC3)c1 [C-5] | >50 |
| Cc1cccc(CNC2=Nc3ccccc3NC23CCCCC3)c1 [C-11] | >20 |
| FC(F)(F)c1cccc(CNC2=Nc3ccccc3NC23CCCCC3)c1 [C-23] | >100 |
| COc1cccc(CNC2=Nc3ccccc3NC23CCCCC3)c1 [C-47] | >50 |
| Fc1cc(Cl)ccc1CNC1=Nc2ccccc2NC12CCCCC2 [C-61] | >100 |
| Clc1cccc(CCNC2=Nc3ccccc3NC23CCCCC3)c1 [C-79] | >10 |
| CC1CCC2(CC1)Nc1ccccc1N=C2NCc1ccccc1Cl (stereo not drawn) [C-91] | >100 |
| CC(=O)NC1CCC2(CC1)Nc1ccccc1N=C2NCc1cccc(Cl)c1 (stereo not drawn) [C-111] | >10 |
| Fc1cc2c(cc1F)NC1(CCCCC1)C(NCc1cccc(Cl)c1)=N2 [C-137] | >100 |
| Clc1ccccc1CNC1=Nc2ccccc2NC12CCCCCC2 [C-205] | >200 |
| Clc1cccc(CNC2=Nc3ccccc3NC23CCCCCCC3)c1 [C-206] | >10 |
| c1ccc(CNC2=Nc3ccccc3NC23CCCCCC3)cc1 [C-214] | >20 |
| c1ccc(CNC2=Nc3ccccc3NC23CCCCC3)cc1 [C-215] | >50 |
| Clc1cccc(CNC2=Nc3ccccc3NC23CCCCCC3)c1 [C-216] | >100 |
| Clc1cc2c(cc1Cl)NC1(CCCCC1)C(NCc1ccccc1)=N2 [C-217] | >500 |
| Cc1cc2c(cc1C)NC1(CCCCC1)C(NCc1ccccc1)=N2 [C-218] | >200 |
| c1ccc(CNC2=Nc3ccccc3NC23CCCC3)cc1 [C-219] | >20 |
| Clc1ccc(CNC2=Nc3ccccc3NC23CCCCCC3)cc1 [C-220] | >50 |
| c1ccc(CCCNC2=Nc3ccccc3NC23CCCCC3)cc1 [C-221] | >10 |

| SMILES | Therapeutic Window (approx.. fold) [fold] |
| --- | --- |
| Fc1cccc(F)c1CNC1=Nc2ccccc2NC12CCCCC2 [C-222] | >200 |
| c1ccc(CNC2=Nc3cc4c(cc3NC23CCCCC3)OCCO4)cc1 [C-223] | >200 |
| COc1cccc(CNC2=Nc3ccccc3NC23CCCCCC3)c1 [C-224] | >50 |
| Cc1cc(C)cc(CNC2=Nc3ccccc3NC23CCCCC3)c1 [C-225] | >20 |
| c1ccc(CCNC2=Nc3ccccc3NC23CCCCC3)cc1 [C-226] | >10 |
| Clc1cccc(CNC2=Nc3cc4c(cc3NC23CCCCC3)OCCO4)c1 [C-227] | >1000 |
| Clc1ccc(CNC2=Nc3ccccc3NC23CCCCC3)cc1Cl [C-228] | >500 |
| c1ccc(C(CNC2=Nc3ccccc3NC23CCCCC3)c2ccccc2)cc1 [C-229] | >10 |
| Clc1ccc(CNC2=Nc3ccccc3NC23CCCCC3)c(Cl)c1 [C-230] | >200 |
| Fc1ccc(CNC2=Nc3ccccc3NC23CCCCC3)c(F)c1 [C-231] | >50 |
| c1ccc(CCCCNC2=Nc3ccccc3NC23CCCCC3)cc1 [C-232] | >20 |
| CC(CCc1ccccc1)NC1=Nc2ccccc2NC12CCCCC2 (stereo not drawn) [C-233] | >20 |
| Clc1cccc(CNC2=Nc3cc(Cl)c(Cl)cc3NC23CCCCCC3)c1 [C-234] | >100 |
| Clc1cc2c(cc1Cl)NC1(CCCCCC1)C(NCc1ccccc1)=N2 [C-235] | >50 |
| c1ccc(CNC2=Nc3ccccc3NC23CCCCCCC3)cc1 [C-236] | >50 |
| Clc1cc2c(cc1Cl)NC1(CCCCCCC1)C(NCc1ccccc1)=N2 [C-237] | >50 |
| Fc1cc2c(cc1F)NC1(CCCCC1)C(NCc1ccccc1)=N2 [C-238] | >100 |
| Cc1cc2c(cc1C)NC1(CCCCCC1)C(NCc1ccccc1)=N2 [C-239] | >50 |
| Fc1cccc(F)c1CNC1=Nc2cc(Cl)c(Cl)cc2NC12CCCCC2 [C-240] | >20 |
| Cc1cc2c(cc1C)NC1(CCCCCCC1)C(NCc1ccccc1)=N2 [C-241] | >20 |
| Fc1ccc(CNC2=Nc3ccccc3NC23CCCCCC3)c(F)c1 [C-242] | >10 |
| Clc1cc2c(cc1Cl)NC1(CCCCCC1)C(NCc1ccccc1Cl)=N2 [C-243] | >20 |

| SMILES | Therapeutic Window (approx.. fold) [fold] |
| --- | --- |
| CC(NC1=Nc2ccccc2NC12CCCCC2)c1ccccc1 (stereo not drawn) [C-244] | >10 |
| CC(=O)NC1CCC2(CC1)Nc1ccccc1N=C2NCc1ccccc1 (stereo not drawn) [C-249] | >20 |
| CC1CCC2(CC1)Nc1ccccc1N=C2NCc1ccccc1 (stereo not drawn) [C-252] | >10 |
| CC1(C)CCC2(CC1)Nc1ccccc1N=C2NCc1ccccc1 [C-253] | >10 |
| FC(F)(F)c1cccc2c1N=C(NCc1ccccc1)C1(CCCCC1)N2 [C-254] | >20 |
| Cc1cc2c(cc1C)NC1(CCCCCC1)C(NCc1cccc(Cl)c1)=N2 [C-255] | >50 |
| FC1(F)Oc2cc3c(cc2O1)NC1(CCCCC1)C(NCc1ccccc1)=N3 [C-256] | >200 |
| NC1CCC2(CC1)Nc1ccccc1N=C2NCc1ccccc1 (stereo not drawn) [C-257] | >20 |
| Clc1ccc2c(c1)N=C(NCc1ccccc1)C1(CCCCC1)N2 [C-258] | >50 |
| FC(F)(F)c1ccc2c(c1)N=C(NCc1ccccc1)C1(CCCCC1)N2 [C-259] | >20 |
| FC(F)(F)c1cccc(CNC2=Nc3cc(Cl)c(Cl)cc3NC23CCCCCC3)c1 [C-260] | >50 |
| FC(F)(F)c1cccc(CNC2=Nc3ccccc3NC23CCCCCC3)c1 [C-261] | >20 |
| Cc1cc(C)cc(CNC2=Nc3cc(Cl)c(Cl)cc3NC23CCCCCC3)c1 [C-262] | >20 |
| Cc1cccc2c1NC1(CCCCC1)C(NCc1ccccc1)=N2 [C-263] | >20 |
| FC(F)(F)c1cccc(CNC2=Nc3cc(Cl)c(Cl)cc3NC23CCCCC3)c1 [C-264] | >20 |
| Fc1ccc(CNC2=Nc3cc(Cl)c(Cl)cc3NC23CCCCC3)c(F)c1 [C-265] | >50 |
| Fc1cccc(F)c1CNC1=Nc2ccccc2NC12CCCCCC2 [C-266] | >20 |
| Cc1cccc(CNC2=Nc3cc(Cl)c(Cl)cc3NC23CCCCCC3)c1 [C-267] | >50 |
| Cc1cccc(CNC2=Nc3cc(Cl)c(Cl)cc3NC23CCCCC3)c1 [C-268] | >100 |
| CC(C)(C)c1ccc(CNC2=Nc3ccccc3NC23CCCCC3)cc1 [C-269] | >20 |
| Clc1ccccc1CNC1=Nc2ccccc2NC12CCNCC2 [N-1] | >500 |
| Clc1cccc(CNC2=Nc3ccccc3NC23CCNCC3)c1 [N-2] | >500 |

| SMILES | Therapeutic Window (approx.. fold) [fold] |
| --- | --- |
| Clc1ccc(CNC2=Nc3ccccc3NC23CCNCC3)cc1 [N-3] | >5000 |
| Fc1cccc(CNC2=Nc3ccccc3NC23CCNCC3)c1 [N-5] | >200 |
| COc1cccc(CNC2=Nc3ccccc3NC23CCNCC3)c1 [N-14] | >100 |
| FC(F)(F)c1cccc(CNC2=Nc3ccccc3NC23CCNCC3)c1 [N-23] | >1000 |
| Clc1ccc(CNC2=Nc3ccccc3NC23CCNCC3)c(Cl)c1 [N-56] | >1000 |
| Fc1cc(Cl)ccc1CNC1=Nc2ccccc2NC12CCNCC2 [N-61] | >1000 |
| Clc1cccc(CCNC2=Nc3ccccc3NC23CCNCC3)c1 [N-79] | >50 |
| CN1CCC2(CC1)Nc1ccccc1N=C2NCc1cccc(Cl)c1 [N-90] | >500 |
| CC(=O)N1CCC2(CC1)Nc1ccccc1N=C2NCc1cccc(Cl)c1 [N-99] | >100 |
| Cc1cc2c(cc1C)NC1(CCNCC1)C(NCc1cccc(Cl)c1)=N2 [N-111] | >1000 |
| Clc1cccc(CNC2=Nc3cc(Cl)c(Cl)cc3NC23CCNCC3)c1 [N-115] | >200 |
| Fc1cc2c(cc1F)NC1(CCNCC1)C(NCc1cccc(Cl)c1)=N2 [N-117] | >20 |
| CN1CCC2(CC1)Nc1ccccc1N=C2NCc1ccccc1 [N-204] | >50 |
| Clc1cc2c(cc1Cl)NC1(CCNCC1)C(NCc1ccccc1)=N2 [N-205] | >100 |
| c1ccc(CNC2=Nc3ccccc3NC23CCNCC3)cc1 [N-206] | >100 |
| Clc1cc2c(cc1Cl)NC1(CCNCC1)C(NCc1ccccc1Cl)=N2 [N-207] | >500 |
| Clc1ccc(CNC2=Nc3cc(Cl)c(Cl)cc3NC23CCNCC3)cc1 [N-208] | >500 |
| CN1CCC2(CC1)Nc1ccccc1N=C2NCc1ccccc1Cl [N-209] | >100 |
| Cc1cc2c(cc1C)NC1(CCNCC1)C(NCc1ccccc1)=N2 [N-210] | >1000 |
| Clc1ccc(CNC2=Nc3ccccc3NC23CCNCC3)cc1Cl [N-211] | >1000 |
| c1ccc(CNC2=Nc3ccccc3NC23CCCNCC3)cc1 (stereo not drawn) [N-212] | >10 |
